Experimental data: article PMC6881349
No constants are given. Whether binding was seen depends on the method and setting. For some assays here: Binding seen in cells or lysates may run through a third protein. Some entries that bind do so weakly or less than the wild type.

Protein sequences, listed by entry. Tags and fused reporters are not part of them.
UniProt P40763: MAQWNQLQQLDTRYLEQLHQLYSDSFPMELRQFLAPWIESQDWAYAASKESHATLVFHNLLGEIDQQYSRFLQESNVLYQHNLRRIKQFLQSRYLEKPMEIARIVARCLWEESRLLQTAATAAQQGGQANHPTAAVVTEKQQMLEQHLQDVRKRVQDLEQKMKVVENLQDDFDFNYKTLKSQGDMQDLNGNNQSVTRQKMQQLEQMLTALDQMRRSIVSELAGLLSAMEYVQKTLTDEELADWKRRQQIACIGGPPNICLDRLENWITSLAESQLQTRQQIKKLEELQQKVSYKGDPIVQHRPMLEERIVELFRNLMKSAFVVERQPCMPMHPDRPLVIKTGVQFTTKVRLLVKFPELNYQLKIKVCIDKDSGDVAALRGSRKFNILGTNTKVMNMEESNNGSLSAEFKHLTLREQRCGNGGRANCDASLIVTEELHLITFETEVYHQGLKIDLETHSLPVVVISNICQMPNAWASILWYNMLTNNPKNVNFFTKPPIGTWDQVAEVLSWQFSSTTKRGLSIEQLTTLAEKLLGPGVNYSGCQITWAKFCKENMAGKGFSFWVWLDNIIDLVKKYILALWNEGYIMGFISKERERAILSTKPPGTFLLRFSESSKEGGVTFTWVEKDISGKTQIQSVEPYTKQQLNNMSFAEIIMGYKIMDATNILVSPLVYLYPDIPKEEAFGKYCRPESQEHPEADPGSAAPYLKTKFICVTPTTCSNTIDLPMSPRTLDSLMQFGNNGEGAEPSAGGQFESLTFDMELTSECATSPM

Experiments:
[1] = target: STAT3 (human (endogenous in human vascular endothelial cells)) (UniProt P40763); assay: co-IP; lysates extracted from human vascular endothelial cells; 'indicated antibodies'; endogenous proteins
[2] = target: STAT3 (human (endogenous in human vascular endothelial cells)) (UniProt P40763); assay: Re-ChIP; human vascular endothelial cells treated with TGF-β for 72 h; chromatin cross-linked with 1% formaldehyde; immune complexes eluted and precipitated with a second antibody; read on the Twist1 promoter

binding [1]: binds | binding [2]: binds
B1: Megakaryocytic leukemia 1 (MKL1) (protein, UniProt Q969V6 1-931)
chain: MPPLKSPAAFHEQRRSLERARTEDYLKRKIRSRPERSELVRMHILEETSAEPSLQAKQLKLKRARLADDLNEKIAQRPGPMELVEKNILPVESSLKEAIIVGQVNYPKVADSSSFDEDSSDALSPEQPASHESQGSVPSPLEARVSEPLLSATSASPTQVVSQLPMGRDSREMLFLAEQPPLPPPPLLPPSLTNGTTIPTAKSTPTLIKQSQPKSASEKSQRSKKAKELKPKVKKLKYHQYIPPDQKQDRGAPPMDSSYAKILQQQQLFLQLQILNQQQQQHHNYQAILPAPPKSAGEALGSSGTPPVRSLSTTNSSSSSGAPGPCGLARQNSTSLTGKPGALPANLDDMKVAELKQELKLRSLPVSGTKTELIERLRAYQDQISPVPGAPKAPAATSILHKAGEVVVAFPAARLSTGPALVAAGLAPAEVVVATVASSGVVKFGSTGSTPPVSPTPSERSLLSTGDENSTPGDTFGEMVTSPLTQLTLQASPLQILVKEEGPRAGSCCLSPGGRAELEGRDKDQMLQEKDKQIEALTRMLRQKQQLVERLKLQLEQEKRAQQPAPAPAPLGTPVKQENSFSSCQLSQQPLGPAHPFNPSLAAPATNHIDPCAVAPGPPSVVVKQEALQPEPEPVPAPQLLLGPQGPSLIKGVAPPTLITDSTGTHLVLTVTNKNADSPGLSSGSPQQPSSQPGSPAPAPSAQMDLEHPLQPLFGTPTSLLKKEPPGYEEAMSQQPKQQENGSSSQQMDDLFDILIQSGEISADFKEPPSLPGKEKPSPKTVCGSPLAAQPSPSAELPQAAPPPPGSPSLPGRLEDFLESSTGLPLLTSGHDGPEPLSLIDDLHSQMLSSTAILDHPPSPMDTSELHFVPEPSSTMGLDLADGHLDSMDWLELSSGGPVLSLAPLSTTAPSLFSTDFLDGHDLQLHWDSCL
